In PMC6753162, “The interactome of 2-Cys peroxiredoxins in Plasmodium falciparum” (Scientific Reports, 2019):
No constants are given. Whether binding was seen depends on the method and setting. Some results given as binding are weak or reduced against the parent protein; the word gives no strength.

Protein sequences, listed by entry. Tags and fused reporters are not part of them.
UniProt Q27743: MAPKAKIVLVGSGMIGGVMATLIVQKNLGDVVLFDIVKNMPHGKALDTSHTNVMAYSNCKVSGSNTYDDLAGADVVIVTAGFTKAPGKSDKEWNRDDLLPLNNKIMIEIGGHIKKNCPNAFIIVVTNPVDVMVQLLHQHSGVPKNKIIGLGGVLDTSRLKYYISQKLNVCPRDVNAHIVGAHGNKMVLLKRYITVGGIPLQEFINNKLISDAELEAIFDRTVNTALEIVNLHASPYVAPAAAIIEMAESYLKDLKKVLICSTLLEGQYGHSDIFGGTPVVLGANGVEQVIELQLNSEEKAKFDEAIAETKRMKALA

Target: T1, PfPrx1a wild type (P. falciparum) (UniProt Q8IL80)
T1 sequence: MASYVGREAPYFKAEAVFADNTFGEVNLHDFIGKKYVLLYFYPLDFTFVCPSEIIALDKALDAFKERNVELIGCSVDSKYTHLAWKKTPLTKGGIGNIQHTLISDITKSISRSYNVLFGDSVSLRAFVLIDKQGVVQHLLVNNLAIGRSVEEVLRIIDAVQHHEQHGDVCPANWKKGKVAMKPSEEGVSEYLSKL
Test: pull-down; 2 mg reduced PfPrx1a wt on CNBr-activated Sepharose 4B; 8 mg purified recombinant PfLDH wt or PfSAHH wt (not pre-reduced); extensive washing; eluted with 10 mM DTT; silver-stained 12% SDS-PAGE; both purified

With “recombinant PfLDH wt (from UniProt Q27743 1-316) (enzyme)” the binding was “binds”.
